These are yes or no findings as the source states them, for the method shown. In cells and extracts the contact can be indirect. Here binding means that the protein was enriched with, or labelled near, the bait; the list need not be complete. Tags and fused reporters may be left off the sequences shown.
Target: T1, TRAPα fused with HA (TRAPα-HA) (UniProt P43307)
T1 sequence: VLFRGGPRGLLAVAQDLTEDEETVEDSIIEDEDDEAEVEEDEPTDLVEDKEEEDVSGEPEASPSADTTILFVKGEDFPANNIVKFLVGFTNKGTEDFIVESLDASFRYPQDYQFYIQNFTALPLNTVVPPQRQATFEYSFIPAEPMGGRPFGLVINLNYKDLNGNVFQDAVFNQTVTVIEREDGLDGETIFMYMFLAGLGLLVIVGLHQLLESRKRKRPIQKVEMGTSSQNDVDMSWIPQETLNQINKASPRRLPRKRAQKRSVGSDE
Assay: affinity purification with mass spectrometry; TRAPα-HA captured on anti-HA magnetic beads from microsomes solubilized in 2% digitonin (50 mM HEPES pH 7.4, 150 mM NaCl, 5 mM MgAc, 1 mM DTT), washed with 0.2% digitonin, 4 °C; differentially recovered gel band identified by MS/MS

Protein sequences, listed by entry. Tags and fused reporters are not part of them. Residues count along the entry.
UniProt P27824, residues 21-592: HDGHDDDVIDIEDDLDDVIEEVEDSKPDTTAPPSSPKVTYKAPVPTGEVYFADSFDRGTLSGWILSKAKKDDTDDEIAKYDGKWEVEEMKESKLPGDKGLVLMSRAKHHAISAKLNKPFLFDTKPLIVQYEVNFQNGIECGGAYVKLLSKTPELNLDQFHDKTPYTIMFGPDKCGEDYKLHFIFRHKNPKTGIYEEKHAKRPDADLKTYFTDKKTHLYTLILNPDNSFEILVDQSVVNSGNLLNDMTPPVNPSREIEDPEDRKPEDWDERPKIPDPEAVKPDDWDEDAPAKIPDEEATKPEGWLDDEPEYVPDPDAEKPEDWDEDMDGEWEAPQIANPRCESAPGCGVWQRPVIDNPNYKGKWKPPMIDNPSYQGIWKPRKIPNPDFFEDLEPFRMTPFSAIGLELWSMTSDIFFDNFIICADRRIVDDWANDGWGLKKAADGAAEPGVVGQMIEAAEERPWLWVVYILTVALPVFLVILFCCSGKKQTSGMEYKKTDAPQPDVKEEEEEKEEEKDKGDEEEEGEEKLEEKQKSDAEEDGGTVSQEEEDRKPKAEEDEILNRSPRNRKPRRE

binding: binds
Substance: calnexin (CANX), endogenous (from UniProt P27824 21-592)
